Record: PubChem BioAssay AID1671195 (Yale University, 2021)

Test: 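Regulators of LDL receptor activity judged by labelled LDL uptake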 (primary screen)
System: human Huh7 hepatoma cells
Reagents: siRNA pool against human genes, 18 nM
Duration: about 2 to 2.5 days of knockdown, then 8 h LDL uptake
Challenge: DiI-labelled LDL at 30 µg/ml for 8 h, in lipoprotein-deficient serum medium
Detection: 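Fluorescent LDL signal imaged in cells, scaled to the plate median, robust z-score for each replicate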
Scale: robust z-score: higher = more LDL uptake after knockdown
Hit rule: 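a gene counts as active if at least two replicate z-scores exceed ±2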
This is an unselected part of about 22,000 reagents tested. About 1,510 of them (6.9%) were called active. 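Active includes knockdowns raising or lowering LDL uptake; positive z-scores mean more uptake, negative mean less.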 A number with no mark means an inactive call. Reagent sequences are not shown.

| Target gene | robust z-score, replicate 1 | robust z-score, replicate 2 | robust z-score, replicate 3 |
| --- | --- | --- | --- |
| LOC389331 (retired record) | 0.973 | 1.25 | 1.6 |
| LOC440512 (retired record) | 0.593 | 0.0658 | 0.0968 |
| PHF12 (PHD finger protein 12) | -1.32 | -0.982 | -1.16 |
| DYNLT1 (dynein light chain Tctex-type 1) | -2.25 | -0.635 | -0.18 |
| SNAPC2 (small nuclear RNA activating complex polypeptide 2) | -1.86 | -1.82 | -1.42 |
| TACC3 (transforming acidic coiled-coil containing protein 3) | 0.31 | 1.05 | -0.529 |
| SERPINA9 (serpin family A member 9) | 0.691 | -0.3 | 0.136 |
| CAT (catalase) | 0.287 | 0.775 | 0.0367 |
| TNFSF18 (TNF superfamily member 18) | -1.26 | 0.243 | -0.438 |
| TECR (trans-2,3-enoyl-CoA reductase) | 0.748 | 1.73 | 1.31 |
| ACADS (acyl-CoA dehydrogenase short chain) | 1.69 | 1.45 | 1.37 |
| MYH2 (myosin heavy chain 2) | 2.05 | 0.972 | 1.23 |
| SAP18P2 (SAP18 pseudogene 2) | -1.08 | -1.45 | -1.5 |
| PARP8 (poly(ADP-ribose) polymerase family member 8) | -0.89 | -0.777 | -1.17 |
| GJD4 (gap junction protein delta 4) | 2.8 (active) | 2.09 | 2.29 |
| KNL1 (kinetochore scaffold 1) | -0.816 | -0.549 | -0.117 |
| SUGT1 (SGT1 assembly cochaperone of MIS12 kinetochore complex) | -0.0806 | 0.183 | -0.975 |
| ANKRD13C (ankyrin repeat domain 13C) | -0.185 | -0.291 | -0.453 |
| GP5 (glycoprotein V platelet) | -0.16 | 0.115 | 0.435 |
| LOC441624 (retired record) | -0.73 | -0.565 | -0.765 |
| GARIN1B (golgi associated RAB2 interactor 1B) | 0.701 | 0.424 | 0.763 |
| HERC2P3 (HERC2 pseudogene 3) | -0.0613 | -0.23 | -0.255 |
| SPATA31C1 (SPATA31 subfamily C member 1) | 3.61 (active) | 3.72 | 3.09 |
| CSMD1 (CUB and Sushi multiple domains 1) | 0.725 | 1.02 | 0.442 |
| FMNL3 (formin like 3) | 0.486 | 0.172 | 1.4 |
| SPATA45 (spermatogenesis associated 45) | 1.5 | -0.376 | 1.21 |
| JPH1 (junctophilin 1) | -0.729 | 0.19 | 0.503 |
| GTF2H4 (general transcription factor IIH subunit 4) | 0.572 | 0.236 | 0.303 |
| MROH2A (maestro heat like repeat family member 2A) | 0.0617 | 0.536 | 0.698 |
| PKN1 (protein kinase N1) | 1.79 | 2.33 | 0.427 |
| SETDB1 (SET domain bifurcated histone lysine methyltransferase 1) | 1.33 | 0.734 | 0.274 |
| LOC401584 (retired record) | -0.0863 | -1.03 | 0.0999 |
| PPIA (peptidylprolyl isomerase A) | 0.184 | 1.77 | -0.251 |
| PRSS50 (serine protease 50) | -1.85 | -1.8 | -1.69 |
| LOC389352 (retired record) | -1.42 | -1.5 | -1.34 |
| NAGA (alpha-N-acetylgalactosaminidase) | -2.15 | 0.331 | 0.5 |
| SEMA4F (ssemaphorin 4F) | -0.715 | -1.18 | -1.29 |
| HBS1L (HBS1 like translational GTPase) | 1.47 | 0.79 | 1.16 |
| TMEM196 (transmembrane protein 196) | -0.0338 | -0.416 | 0.0178 |
| CEP97 (centrosomal protein 97) | 1.24 | 1.28 | 1.5 |
| THRSP (thyroid hormone responsive) | -0.346 | 0.149 | -0.0166 |
| SLC9C1 | 0.227 | 0.789 | 0.702 |
| NSMCE3 (NSE3 component of SMC5/6 complex) | 2.31 | 1.53 | 0.256 |
| RFX1 (regulatory factor X1) | -1.22 | -0.866 | -1.02 |
| PAN2 (poly(A) specific ribonuclease subunit PAN2) | 0.0757 | 0.156 | 0.264 |
| LOC388798 (retired record) | 0.557 | -0.018 | 0.0152 |
| LOC391322 (D-dopachrome tautomerase-like) | -1.68 | -1.38 | -1.76 |
| PLA2G15 (phospholipase A2 group XV) | -1.03 | -0.668 | -0.249 |
| ORAI3 (ORAI calcium release-activated calcium modulator 3) | 0.119 | 0.0758 | 0.181 |
| GLRX2 (glutaredoxin 2) | -1 | -1.01 | -1.57 |
| MROH1 (maestro heat like repeat family member 1) | 2.04 | 1.71 | 1.46 |
| CAVIN1 (caveolae associated protein 1) | -0.59 | -0.5 | -0.12 |
| PNKP (polynucleotide kinase 3'-phosphatase) | -0.944 | -0.567 | -0.575 |
| SEC23A (SEC23 homolog A, COPII component) | 1.25 | 0.682 | 1.39 |
| ART4 (ADP-ribosyltransferase 4 (inactive) (Dombrock blood group)) | 1.35 | 0.96 | 1.09 |
| QTMAN (queuosine-tRNA mannosyltransferase) | 0.225 | -0.0114 | -0.0283 |
| NDEL1 (nudE neurodevelopment protein 1 like 1) | -0.316 | 0.227 | -0.0284 |
| FKTN (fukutin) | -0.695 | 0.912 | 0.19 |
| NOX4 (NADPH oxidase 4) | 0.032 | 0.397 | -0.173 |
| DNM1 (dynamin 1) | 2.15 | 1.49 | 1.74 |
| PFKP (phosphofructokinase, platelet) | -0.481 | 0.864 | -0.363 |
| RBM48 (RNA binding motif protein 48) | -0.0375 | -0.617 | 0.437 |
| ABCB8 (ATP binding cassette subfamily B member 8) | 0.516 | -0.584 | -0.0528 |
| HTR3C (5-hydroxytryptamine receptor 3C) | -1.14 | -0.453 | -1.36 |
| PRSS1 (serine protease 1) | 1.09 | 0.0364 | 1.49 |
| TLE6 (TLE family member 6, subcortical maternal complex member) | -0.895 | -0.868 | -1.09 |
| VWA3A (von Willebrand factor A domain containing 3A) | 0.0017 | -0.693 | 0.249 |
| PNMA2 (PNMA family member 2) | 1.59 | 1.81 | 2.38 |
